The results in this text go back to patent US20050119186A1, “Potent peptide inhibitors and methods of use” (priority 2003, published 2005).

Amino acid sequences for entries named in this document (tags omitted). Residues count along the entry.
UniProt P05362, residues 28-532: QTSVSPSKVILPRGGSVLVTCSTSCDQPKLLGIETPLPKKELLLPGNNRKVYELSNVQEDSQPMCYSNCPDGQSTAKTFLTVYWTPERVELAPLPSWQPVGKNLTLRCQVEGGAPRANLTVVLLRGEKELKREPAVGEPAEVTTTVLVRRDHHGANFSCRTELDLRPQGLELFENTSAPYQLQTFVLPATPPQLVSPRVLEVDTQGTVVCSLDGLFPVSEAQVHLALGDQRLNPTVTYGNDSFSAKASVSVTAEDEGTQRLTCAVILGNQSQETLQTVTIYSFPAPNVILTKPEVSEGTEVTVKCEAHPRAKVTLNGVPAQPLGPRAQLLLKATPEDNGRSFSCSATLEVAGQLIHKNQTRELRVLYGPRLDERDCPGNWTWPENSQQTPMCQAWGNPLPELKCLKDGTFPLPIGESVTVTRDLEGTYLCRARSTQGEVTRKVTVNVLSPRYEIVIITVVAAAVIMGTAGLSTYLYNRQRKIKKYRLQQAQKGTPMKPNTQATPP

The assay has as its target intercellular adhesion molecule-1 (ICAM-1) (human) (UniProt P05362). Put plainly: cellular aggregation blocking assay (LFA-1/ICAM-1 dependent), peptide 10 µM to 1 mM.

These are yes or no findings as the source states them, for the method shown.

In the case of CLARMRSIC (cyclic: disulfide bridge between the first and the last cysteine) [Table 1 peptide 12, … (SEQ ID NO:32)], the binding result was “no binding (tested: >1000 µM)”. On to CALRMRSIC (cyclic: disulfide bridge between the first and the last cysteine) [Table 1 peptide 11, … (SEQ ID NO:31)], for which the binding entry is listed as “no binding (tested: >1000 µM)”. Take CVLRMRSAC (cyclic: disulfide bridge between the first and the last cysteine) [Table 1 peptide 3, … (SEQ ID NO:23)]: the binding result is “no binding (tested: >1000 µM)”. Turning to CLLRMRSLC (cyclic: disulfide bridge between the first and the last cysteine) [Table 1 peptide 8, … (SEQ ID NO:28)], the binding result was “no binding (tested: >1000 µM)”.

CLVRMRSAC (cyclic: disulfide bridge between the first and the last cysteine) [Table 1 peptide 5, … (SEQ ID NO:25)]: the binding entry is on record as “no binding (tested: >1000 µM)”. With CLLRMASIC (cyclic: disulfide bridge between the first and the last cysteine) [Table 1 peptide 14, … (SEQ ID NO:34)], the binding entry is recorded as “no binding (tested: >1000 µM)”.
